# Results taken from PMC12375501.
# These are yes or no findings as the source states them, for the method shown. Binding seen in cells or lysates may run through a third protein. Some results given as binding are weak or reduced against the parent protein; the word gives no strength. Where a sequence is shown, tags or fusion partners need not be part of it.
# T1: MYC-tagged RNASEH2B (human) (UniProt Q5TBB1)
# T1 sequence: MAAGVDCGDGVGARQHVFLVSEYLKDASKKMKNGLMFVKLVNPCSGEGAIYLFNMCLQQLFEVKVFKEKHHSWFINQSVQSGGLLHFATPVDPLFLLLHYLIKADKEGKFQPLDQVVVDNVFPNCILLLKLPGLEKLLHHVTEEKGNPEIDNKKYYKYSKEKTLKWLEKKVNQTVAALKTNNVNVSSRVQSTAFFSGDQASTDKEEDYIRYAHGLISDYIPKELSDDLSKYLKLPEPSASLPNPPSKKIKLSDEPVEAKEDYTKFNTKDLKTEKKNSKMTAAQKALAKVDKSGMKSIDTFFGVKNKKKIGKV
# B1: RNASEH2C (endogenous) (protein, UniProt Q8TDP1 1-164)
# chain: MESGDEAAIERHRVHLRSATLRDAVPATLHLLPCEVAVDGPAPVGRFFTPAIRQGPEGLEVSFRGRCLRGEEVAVPPGLVGYVMVTEEKKVSMGKPDPLRDSGTDDQEEEPLERDFDRFIGATANFSRFTLWGLETIPGPDAKVRGALTWPSLAAAIHAQVPED
# Target: T1, MYC-tagged RNASEH2B (human)
# Experiment: co-IP; ChromoTek Myc-trap magnetic agarose (anti-Myc-tag nanobody) precipitates ectopic MYC-RH2B 48 h after doxycycline induction; 1 mg protein per condition, 1 h; buffers with DNase I, 2.5 mM MgCl2, protease and phosphatase inhibitors; immunoblot for RH2A, RH2B, RH2C
binder,measurement,value
B1,binding,binds
